# Single values are uncertain, as repeats are few or missing.
# By UniProt entry, the sequences of proteins in these tests, tags left out. Where a name states a change or a piece, a line headed by the entry shows the natural chain unless it says otherwise.
# UniProt Q8TD19: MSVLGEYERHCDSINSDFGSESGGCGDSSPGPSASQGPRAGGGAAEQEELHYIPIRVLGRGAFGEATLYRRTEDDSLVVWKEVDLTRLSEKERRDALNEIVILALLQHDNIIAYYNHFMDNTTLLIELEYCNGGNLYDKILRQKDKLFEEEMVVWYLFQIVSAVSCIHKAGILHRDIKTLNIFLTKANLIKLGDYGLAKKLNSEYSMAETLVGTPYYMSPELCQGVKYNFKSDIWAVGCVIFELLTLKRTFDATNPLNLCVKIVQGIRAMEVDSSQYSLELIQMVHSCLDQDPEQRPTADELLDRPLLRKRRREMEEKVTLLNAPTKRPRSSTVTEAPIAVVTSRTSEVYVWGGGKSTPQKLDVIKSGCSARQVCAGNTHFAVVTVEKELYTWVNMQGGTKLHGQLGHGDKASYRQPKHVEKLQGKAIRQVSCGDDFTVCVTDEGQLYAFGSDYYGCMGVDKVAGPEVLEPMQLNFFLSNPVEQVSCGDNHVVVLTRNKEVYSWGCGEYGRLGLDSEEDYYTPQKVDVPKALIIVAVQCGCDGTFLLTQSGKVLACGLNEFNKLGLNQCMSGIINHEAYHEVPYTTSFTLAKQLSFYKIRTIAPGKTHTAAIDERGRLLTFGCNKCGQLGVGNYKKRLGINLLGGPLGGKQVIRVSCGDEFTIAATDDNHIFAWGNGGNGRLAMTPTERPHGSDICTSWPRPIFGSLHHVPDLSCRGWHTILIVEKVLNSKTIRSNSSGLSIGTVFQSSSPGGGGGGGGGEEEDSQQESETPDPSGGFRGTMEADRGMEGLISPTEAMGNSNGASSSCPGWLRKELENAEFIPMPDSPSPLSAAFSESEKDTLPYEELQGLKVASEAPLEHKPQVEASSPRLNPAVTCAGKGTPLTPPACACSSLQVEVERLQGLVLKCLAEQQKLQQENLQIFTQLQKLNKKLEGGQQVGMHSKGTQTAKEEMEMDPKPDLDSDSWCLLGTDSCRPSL
# UniProt O96013: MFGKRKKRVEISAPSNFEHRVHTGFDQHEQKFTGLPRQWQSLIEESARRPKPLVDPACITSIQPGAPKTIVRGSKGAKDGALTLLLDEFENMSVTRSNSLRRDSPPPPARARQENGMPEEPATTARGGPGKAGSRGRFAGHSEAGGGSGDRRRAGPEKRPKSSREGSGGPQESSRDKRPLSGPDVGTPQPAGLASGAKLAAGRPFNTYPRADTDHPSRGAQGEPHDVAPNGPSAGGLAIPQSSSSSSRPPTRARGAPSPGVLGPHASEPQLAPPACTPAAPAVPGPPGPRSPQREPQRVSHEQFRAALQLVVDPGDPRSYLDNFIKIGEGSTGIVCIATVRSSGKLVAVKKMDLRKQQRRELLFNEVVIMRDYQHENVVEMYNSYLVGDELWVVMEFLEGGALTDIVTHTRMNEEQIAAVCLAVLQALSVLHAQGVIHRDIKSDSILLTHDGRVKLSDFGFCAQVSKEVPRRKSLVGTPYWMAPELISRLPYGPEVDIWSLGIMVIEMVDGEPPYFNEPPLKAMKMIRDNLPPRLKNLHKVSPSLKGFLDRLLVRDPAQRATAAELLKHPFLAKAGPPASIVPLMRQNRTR
# UniProt Q8NFH3: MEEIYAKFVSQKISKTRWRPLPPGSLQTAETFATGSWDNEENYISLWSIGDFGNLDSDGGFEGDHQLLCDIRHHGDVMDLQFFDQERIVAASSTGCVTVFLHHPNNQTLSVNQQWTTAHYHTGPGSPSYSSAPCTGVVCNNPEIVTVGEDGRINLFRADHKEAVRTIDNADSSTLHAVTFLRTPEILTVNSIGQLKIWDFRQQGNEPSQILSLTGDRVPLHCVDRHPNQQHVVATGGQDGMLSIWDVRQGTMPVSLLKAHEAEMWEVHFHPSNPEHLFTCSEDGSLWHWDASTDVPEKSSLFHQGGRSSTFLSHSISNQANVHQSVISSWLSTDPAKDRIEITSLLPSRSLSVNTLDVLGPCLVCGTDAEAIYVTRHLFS
# UniProt P46063: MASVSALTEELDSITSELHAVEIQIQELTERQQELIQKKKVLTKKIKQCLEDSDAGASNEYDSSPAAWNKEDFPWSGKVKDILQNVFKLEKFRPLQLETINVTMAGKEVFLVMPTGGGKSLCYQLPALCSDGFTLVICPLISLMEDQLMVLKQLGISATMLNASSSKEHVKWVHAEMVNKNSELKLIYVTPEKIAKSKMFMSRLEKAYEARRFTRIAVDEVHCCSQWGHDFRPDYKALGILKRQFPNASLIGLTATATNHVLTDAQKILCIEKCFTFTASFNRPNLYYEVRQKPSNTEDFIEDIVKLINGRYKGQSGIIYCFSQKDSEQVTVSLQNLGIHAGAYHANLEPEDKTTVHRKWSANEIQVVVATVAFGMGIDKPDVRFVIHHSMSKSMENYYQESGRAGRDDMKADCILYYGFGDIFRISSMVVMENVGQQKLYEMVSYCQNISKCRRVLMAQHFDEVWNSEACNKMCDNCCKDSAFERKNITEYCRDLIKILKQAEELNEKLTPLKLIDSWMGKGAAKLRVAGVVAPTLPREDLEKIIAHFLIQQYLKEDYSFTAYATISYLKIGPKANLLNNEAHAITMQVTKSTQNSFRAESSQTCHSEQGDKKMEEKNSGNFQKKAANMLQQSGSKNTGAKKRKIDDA
# UniProt P13726, whole entry: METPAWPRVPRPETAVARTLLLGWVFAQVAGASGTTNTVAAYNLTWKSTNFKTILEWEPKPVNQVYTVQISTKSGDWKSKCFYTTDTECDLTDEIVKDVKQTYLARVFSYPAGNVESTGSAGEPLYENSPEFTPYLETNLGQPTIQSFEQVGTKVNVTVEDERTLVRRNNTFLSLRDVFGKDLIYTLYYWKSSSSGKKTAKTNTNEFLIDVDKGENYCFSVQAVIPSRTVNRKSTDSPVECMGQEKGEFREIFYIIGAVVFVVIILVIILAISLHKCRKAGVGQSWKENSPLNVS
# UniProt Q9NX01: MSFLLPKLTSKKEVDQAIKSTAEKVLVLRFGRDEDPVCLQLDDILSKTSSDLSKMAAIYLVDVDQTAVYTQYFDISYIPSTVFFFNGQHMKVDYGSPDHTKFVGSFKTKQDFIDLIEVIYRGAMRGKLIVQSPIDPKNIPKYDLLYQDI
# UniProt P62140, whole entry: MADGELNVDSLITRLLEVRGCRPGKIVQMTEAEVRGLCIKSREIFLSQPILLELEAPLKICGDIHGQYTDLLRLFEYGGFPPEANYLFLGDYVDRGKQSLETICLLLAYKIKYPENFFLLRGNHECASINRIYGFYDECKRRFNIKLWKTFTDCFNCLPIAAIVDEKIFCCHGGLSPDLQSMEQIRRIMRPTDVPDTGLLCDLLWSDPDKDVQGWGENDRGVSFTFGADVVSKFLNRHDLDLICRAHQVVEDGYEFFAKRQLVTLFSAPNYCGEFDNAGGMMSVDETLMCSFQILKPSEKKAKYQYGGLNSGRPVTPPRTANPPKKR
# UniProt Q969V3: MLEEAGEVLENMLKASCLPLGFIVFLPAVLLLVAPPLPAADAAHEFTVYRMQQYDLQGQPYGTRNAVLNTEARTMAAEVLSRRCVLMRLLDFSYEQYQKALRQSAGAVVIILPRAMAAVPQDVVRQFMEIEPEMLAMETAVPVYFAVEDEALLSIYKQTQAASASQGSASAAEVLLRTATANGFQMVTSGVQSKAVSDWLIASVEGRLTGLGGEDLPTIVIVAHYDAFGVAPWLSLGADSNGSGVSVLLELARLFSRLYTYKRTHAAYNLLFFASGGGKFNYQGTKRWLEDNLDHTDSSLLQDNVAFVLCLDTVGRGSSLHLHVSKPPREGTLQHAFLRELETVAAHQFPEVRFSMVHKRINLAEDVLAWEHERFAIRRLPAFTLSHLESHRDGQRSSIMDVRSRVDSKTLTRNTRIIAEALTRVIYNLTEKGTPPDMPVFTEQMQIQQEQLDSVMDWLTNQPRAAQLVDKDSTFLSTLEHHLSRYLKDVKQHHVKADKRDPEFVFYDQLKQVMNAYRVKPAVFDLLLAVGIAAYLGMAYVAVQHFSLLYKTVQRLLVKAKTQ
# UniProt P51970, whole entry: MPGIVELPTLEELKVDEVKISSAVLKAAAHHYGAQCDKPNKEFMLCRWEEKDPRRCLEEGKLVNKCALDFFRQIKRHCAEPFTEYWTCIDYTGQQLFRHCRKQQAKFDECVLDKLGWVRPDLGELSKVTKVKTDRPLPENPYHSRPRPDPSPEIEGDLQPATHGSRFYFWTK
# UniProt Q96S65: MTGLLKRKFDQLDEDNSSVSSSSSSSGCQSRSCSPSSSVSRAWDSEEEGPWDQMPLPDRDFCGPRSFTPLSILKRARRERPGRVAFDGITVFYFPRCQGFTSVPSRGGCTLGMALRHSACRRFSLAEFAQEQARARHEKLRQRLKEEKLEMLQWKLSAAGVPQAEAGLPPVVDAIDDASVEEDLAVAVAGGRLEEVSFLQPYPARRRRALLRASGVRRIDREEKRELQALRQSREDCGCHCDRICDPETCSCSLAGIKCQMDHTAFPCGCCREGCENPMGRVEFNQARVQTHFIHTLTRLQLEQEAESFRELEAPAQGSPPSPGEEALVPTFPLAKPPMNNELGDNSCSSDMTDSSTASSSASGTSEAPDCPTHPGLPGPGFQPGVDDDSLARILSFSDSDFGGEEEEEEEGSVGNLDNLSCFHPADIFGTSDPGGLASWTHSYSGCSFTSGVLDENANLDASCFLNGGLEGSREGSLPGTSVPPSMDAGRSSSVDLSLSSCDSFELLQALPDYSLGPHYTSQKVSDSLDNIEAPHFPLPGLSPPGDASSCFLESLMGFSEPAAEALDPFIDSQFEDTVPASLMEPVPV
# UniProt O95299, whole entry: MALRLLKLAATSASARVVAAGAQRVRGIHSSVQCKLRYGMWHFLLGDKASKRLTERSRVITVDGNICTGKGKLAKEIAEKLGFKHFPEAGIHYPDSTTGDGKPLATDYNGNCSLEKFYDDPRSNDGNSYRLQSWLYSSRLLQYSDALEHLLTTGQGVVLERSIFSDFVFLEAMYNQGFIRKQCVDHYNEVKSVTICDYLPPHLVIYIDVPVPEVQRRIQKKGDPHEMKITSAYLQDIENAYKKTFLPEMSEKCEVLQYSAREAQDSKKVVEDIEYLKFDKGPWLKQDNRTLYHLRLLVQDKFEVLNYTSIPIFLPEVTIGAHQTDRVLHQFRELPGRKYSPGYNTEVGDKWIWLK
# UniProt Q02040: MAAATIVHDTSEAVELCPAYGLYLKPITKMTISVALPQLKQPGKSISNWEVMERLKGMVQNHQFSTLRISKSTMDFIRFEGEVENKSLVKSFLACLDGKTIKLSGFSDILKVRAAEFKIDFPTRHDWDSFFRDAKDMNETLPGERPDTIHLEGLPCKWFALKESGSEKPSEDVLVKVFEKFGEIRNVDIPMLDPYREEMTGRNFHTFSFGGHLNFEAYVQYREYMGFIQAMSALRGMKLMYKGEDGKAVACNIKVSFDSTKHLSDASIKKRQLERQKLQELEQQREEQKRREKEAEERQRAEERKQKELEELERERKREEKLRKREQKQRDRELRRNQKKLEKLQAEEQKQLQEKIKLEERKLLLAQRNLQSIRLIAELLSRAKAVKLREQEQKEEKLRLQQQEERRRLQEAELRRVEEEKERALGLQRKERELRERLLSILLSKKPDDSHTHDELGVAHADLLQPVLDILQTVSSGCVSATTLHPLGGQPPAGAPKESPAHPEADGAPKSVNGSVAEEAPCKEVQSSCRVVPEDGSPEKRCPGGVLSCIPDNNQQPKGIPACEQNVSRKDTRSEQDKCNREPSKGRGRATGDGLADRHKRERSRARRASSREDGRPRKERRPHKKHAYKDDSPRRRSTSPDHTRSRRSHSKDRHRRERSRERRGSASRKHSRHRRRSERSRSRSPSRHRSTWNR
# UniProt Q8TCX1: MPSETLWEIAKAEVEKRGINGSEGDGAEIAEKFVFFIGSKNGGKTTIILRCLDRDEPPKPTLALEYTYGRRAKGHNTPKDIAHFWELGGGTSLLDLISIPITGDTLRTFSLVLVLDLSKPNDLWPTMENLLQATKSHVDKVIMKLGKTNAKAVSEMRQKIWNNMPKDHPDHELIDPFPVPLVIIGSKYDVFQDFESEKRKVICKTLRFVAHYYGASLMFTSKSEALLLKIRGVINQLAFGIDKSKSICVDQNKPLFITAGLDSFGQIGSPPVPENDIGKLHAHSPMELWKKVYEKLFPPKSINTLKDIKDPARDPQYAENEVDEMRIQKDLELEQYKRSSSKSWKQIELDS
# UniProt Q92599: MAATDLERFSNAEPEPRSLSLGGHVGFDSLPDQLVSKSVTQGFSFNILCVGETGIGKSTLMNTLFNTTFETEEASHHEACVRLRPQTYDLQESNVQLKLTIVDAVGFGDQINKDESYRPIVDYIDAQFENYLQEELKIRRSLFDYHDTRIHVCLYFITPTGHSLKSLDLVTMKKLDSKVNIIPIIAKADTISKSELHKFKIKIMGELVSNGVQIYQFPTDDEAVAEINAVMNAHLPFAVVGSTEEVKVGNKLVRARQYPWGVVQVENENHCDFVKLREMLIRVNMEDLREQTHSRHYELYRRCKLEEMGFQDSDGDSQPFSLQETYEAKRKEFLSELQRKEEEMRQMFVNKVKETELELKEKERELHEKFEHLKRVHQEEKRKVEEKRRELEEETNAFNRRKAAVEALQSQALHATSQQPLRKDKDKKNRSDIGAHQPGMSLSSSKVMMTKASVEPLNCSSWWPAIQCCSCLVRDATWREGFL
# Compound: [O-][N+](C(C1=C(C(O)=C2)NC(C(C=C3)=CC=C3Cl)C4C1C=CC4)=C2Cl)=O
# Experiment: melting temperature shift (compound 7 minus DMSO); higher = compound stabilises the protein
# Conditions: 10 µM
# Method: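 Thermal proteome profiling (TMT mass spectrometry) in intact DAOY medulloblastoma cells or DAOY lysates treated with 10 µM compound 7 or DMSO, heated at 10 temperatures from 40.5 to 73.8 °C for 3 min. Melting curves were fitted with the Bioconductor TPP package, and the melting point difference between compound and vehicle is reported per protein (single curve per condition).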
# [1] = system: DAOY cell lysate, treatment time: 20 min, 4 °C
# [2] = system: intact DAOY cells, treatment time: 90 min, 37 °C
Target,melting temperature shift [1] [°C],melting temperature shift [2] [°C]
RBMX (UniProt P38159),1.32,-0.678
PARD3 (UniProt Q8TEW0),-1.51,
NEK9 (UniProt Q8TD19),-0.357,-0.87
TMEM43 (UniProt Q9BTV4),-0.374,0.0852
PAK4 (UniProt O96013),0.171,-2.14
UniProt Q8ND30,,0.194
NUP43 (UniProt Q8NFH3),-0.949,-1.96
RECQL (UniProt P46063),-0.413,1.6
NDUFS4 (UniProt O43181),2.58,
UniProt P13726,-1.95,
UniProt Q7L4P6,,0.413
GTF2E1 (UniProt P29083),-0.222,-1.53
ARIH1 (UniProt Q9Y4X5),-0.0318,1.44
INTS4 (UniProt Q96HW7),-0.217,1.7
UniProt Q9NX01,-1.99,0.784
HDDC3 (UniProt Q8N4P3),,1.67
UniProt O94901,1.58,
PPP1CB (UniProt P62140),-0.244,0.0352
NCLN (UniProt Q969V3),1.01,-0.535
UniProt Q9NQ11,,-2.76
NDUFA8 (UniProt P51970),2.46,0.117
PRKAB1 (UniProt Q9Y478),-0.147,-0.469
UniProt Q96S65,,2.41
HNRNPUL1 (UniProt Q9BUJ2),0.103,-2.25
FBXO3 (UniProt Q9UK99),,-0.536

# 3 records drawn at random from those above:
Target,melting temperature shift [1] [°C],melting temperature shift [2] [°C]
HDDC3 (UniProt Q8N4P3),,1.67
NDUFS4 (UniProt O43181),2.58,
RECQL (UniProt P46063),-0.413,1.6

# The list goes on.

Target,melting temperature shift [1] [°C],melting temperature shift [2] [°C]
NDUFA10 (UniProt O95299),-0.109,-1.74
AKIRIN2 (UniProt Q53H80),1.85,
UniProt Q02040,-0.652,-2.1
C11ORF68 (UniProt Q9H3H3),-0.961,-0.587
UniProt A6NNP5,,1.63
IMP3 (UniProt Q9NV31),1.34,
UniProt Q5EB52,0.527,-0.0988
UniProt P06744,-0.39,0.205
UniProt Q13188,-0.0389,-0.347
ANKRD28 (UniProt O15084),0.0916,0.709
UniProt Q9UIS9,,1.16
C9ORF78 (UniProt Q9NZ63),1.14,
ARMT1 (UniProt Q9H993),0.171,0.431
MRPS24 (UniProt Q96EL2),,2
MESDC2 (UniProt Q14696),0.725,0.356
UBE3C (UniProt Q15386),0.0483,-0.51
DYNC2LI1 (UniProt Q8TCX1),-1.42,
UniProt Q8IUS5,,-2.36
YTHDF2 (UniProt Q9Y5A9),-0.0658,0.379
STRN (UniProt O43815),-0.624,0.303
UniProt Q75LS8,,-0.155
UniProt Q5VWI1,,-0.17
UniProt Q92599,-0.869,-1.77
SF3A2 (UniProt Q15428),0.114,1.31

# Source: the supplement of paper PMC10060354, “Discovery of a small molecule ligand of FRS2 that inhibits invasion and tumor growth” (Cellular Oncology, 2022)
